The values below come from patent US12129222B2, “Production of bitter principle derivatives” (Julius-Maximilians-Universitaet Wuerzburg, priority 2016, dated 2024).

The data set in a line: Taste testing by means of an electronic tongue (electric potentials of aqueous solutions). The settings on record: for taste indicated by the electrical potentials: electronic tongue, compared with denatonium benzoate.

Where “and” joins values, the source holds several entries; their conditions need not be identical. Identical values can stand only once.

On to `CCOC(=O)CNC(=O)c1ccc(C[N+](CC)(CC)CC(=O)Nc2c(C)cccc2C)cc1.[Br-]` [2-(2,6-Dimethylphenylamino)N-(4-(2-ethoxy-2-oxoethylcarbamoyl)benzyl)-N,N-diethyl-2-oxoethane Ammonium Bromide], for which the “taste indicated by the electrical potentials” value is “strongly bitter”. The “potential of aqueous solution, electronic tongue” value (“potential of aqueous solution” below) (sensor SB2AC0, 0.05 mM) is given as ~−93 mV. The “potential of aqueous solution” value (sensor SB2AC0, 0.1 mM) is listed as ~−88 mV. Where the note is “sensor SB2AC0, 0.5 mM”, the “potential of aqueous solution” value was ~−52 mV. Further, the “potential of aqueous solution” value (sensor SB2AC0, 1 mM) was ~−42 mV. Besides, the “potential of aqueous solution” value (sensor SB2AN0, 0.05 mM) is ~−70 mV. Also, the “potential of aqueous solution” value (sensor SB2AN0, 0.1 mM) is ~−60 mV. Moreover, the “potential of aqueous solution” value (sensor SB2AN0, 0.5 mM) is ~−30 mV. In addition, the “potential of aqueous solution” value (sensor SB2AN0, 1 mM) is reported as ~−10 mV. Besides, the “potential of aqueous solution” value (sensor SB2BT0, 0.05 mM) was ~−95 mV. Further, under “sensor SB2BT0, 0.1 mM”, the “potential of aqueous solution” value is ~−94 mV. Further, the “potential of aqueous solution” value (sensor SB2BT0, 0.5 mM) is ~−35 mV. The “potential of aqueous solution” value (sensor SB2BT0, 1 mM) was ~5 mV.
Turning to `CC[N+](CC)(CC(=O)Nc1c(C)cccc1C)Cc1cccc(C(=O)OC)c1.[Br-]` [2-(2,6-dimethylphenylamino)-N,N-diethyl-N-(3-(methoxycarbonyl)benzyl)-2-oxoethane Ammonium Bromide], the “taste indicated by the electrical potentials” value is recorded as “strongly bitter”. The “potential of aqueous solution” value (sensor SB2AC0, 0.05 mM) is ~−75 mV. In addition, where the note is “sensor SB2AC0, 0.1 mM”, the “potential of aqueous solution” value is given as ~−65 mV. The “potential of aqueous solution” value (sensor SB2AC0, 0.5 mM) is recorded as ~−32 mV. In addition, where the note is “sensor SB2AC0, 1 mM”, the “potential of aqueous solution” value is ~−20 mV. Further, the “potential of aqueous solution” value (sensor SB2AN0, 0.05 mM) is ~−90 mV. Besides, the “potential of aqueous solution” value (sensor SB2AN0, 0.1 mM) was ~−88.5 mV. The “potential of aqueous solution” value (sensor SB2AN0, 0.5 mM) is listed as ~−60 mV. Moreover, the “potential of aqueous solution” value (sensor SB2AN0, 1 mM) was ~−21.5 mV. Also, the “potential of aqueous solution” value (sensor SB2BT0, 0.05 mM) was ~−73 mV. Besides, for the setting “sensor SB2BT0, 0.1 mM”, the “potential of aqueous solution” value is ~−72 mV. Besides, where the note is “sensor SB2BT0, 0.5 mM”, the “potential of aqueous solution” value is on record as ~7 mV. Besides, where the note is “sensor SB2BT0, 1 mM”, the “potential of aqueous solution” value is reported as ~44 mV.
Turning to `CC[N+](CC)(CC(=O)Nc1c(C)cccc1C)Cc1ccccc1.O=C([O-])c1ccccc1` [denatonium benzoate, benzyldiethyl(2,6-xylylcarbamoyl)methylammonium benzoate, reference compound], the “potential of aqueous solution” value (sensor SB2BT0, 1 mM) is ~47 mV and ~42 mV.
